This is an account of results in PubChem BioAssay.

A short description of test [1]: Drosophila SCA1 whole organism dose response for polyglutamine toxicity reduction (AID 1595). The settings on record: Drosophila SCA1 polyglutamine model, at 1 µM, stronger effect = higher value.
Another test is described as follows: PubChem AID 1597. The settings on record: Drosophila SCA1 polyglutamine model, at 1 µM, stronger effect = higher value.

Some of the results follow. Entries with a potency or affinity are not part of this list. The source made no clear call on entries shown without one.

Consider `c1ccc([C@H]2CN3CCSC3=N2)cc1`, for which the values for the suppression of toxicity (in test [1]; in the test “PubChem AID 1597”) were 0 and 2.15, respectively.

As to `N[C@H](Cc1ccccc1)C(=O)O`, the suppression of toxicity amounted to 7.14 in test [1] and 1.43 in “PubChem AID 1597”.

For `CC12CC3CC(C)(C1)CC(N)(C3)C2`, the results for the suppression of toxicity (in test [1]; in the test “PubChem AID 1597”) were 5.71 and 12.1, respectively.

For `O=c1cc(-c2ccc(O)cc2)oc2cc(O)cc(O)c12`, the suppression of toxicity turned out to be 1.43 in test [1] and 0.715 in “PubChem AID 1597”.

In the case of `COC(=O)C1[C@H]2C[C@H]3c4[nH]c5ccccc5c4CCN3C[C@@H]2CC[C@@H]1O` (some centres undefined), the figures for the suppression of toxicity (in test [1]; in “PubChem AID 1597”) were 1.43 and 4.29, respectively.

For the compound `COc1c(OC)c2occc2c2oc(=O)ccc12`, the suppression of toxicity in test [1] amounted to 1.43; in the test “PubChem AID 1597”, 0.715.

For `CC(=O)NS(=O)(=O)c1ccc(N)cc1`, the values for the suppression of toxicity (in test [1]; in “PubChem AID 1597”) were 1.43 and 2.15, respectively.

On to `C=C1CC[C@H](O)C/C1=C/C=C1\CCC[C@]2(C)C([C@H](C)/C=C/[C@H](C)C(C)C)CC[C@@H]12` (some centres undefined), for which the results for the suppression of toxicity (in test [1]; in the test “PubChem AID 1597”) were 11.4 and 7.14, respectively.

For the compound `C=C1C(=O)OC2C1CCC1(C)CCC=C(C)C21` (centres undefined), the suppression of toxicity in test [1] is 2.85; in “PubChem AID 1597”, 2.86.

On to `CNC(=O)Oc1ccc2c(c1)[C@]1(C)CCN(C)[C@@H]1N2C`, for which the suppression of toxicity in test [1] is 2.85; in “PubChem AID 1597”, 4.29.

As to `CCN(CC)Cc1ccc(Nc2ccnc3cc(Cl)ccc23)cc1O`, the suppression of toxicity in test [1] stood at 5.71; in “PubChem AID 1597”, 1.43.

As for `CN(C)CCC=C1c2ccccc2C=Cc2ccccc21`, the suppression of toxicity turned out to be 15.7 in test [1] and 20.7 in “PubChem AID 1597”.

For the compound `C=C(CC)C(=O)c1ccc(OCC(=O)O)c(Cl)c1Cl`, the results for the suppression of toxicity (in test [1]; in “PubChem AID 1597”) were 12.9 and 17.1, respectively.

`CCOC(=O)C(Cc1ccc(O)cc1)NC(C)=O` (centres undefined): the values for the suppression of toxicity (in test [1]; in “PubChem AID 1597”) were 10 and 9.29, respectively.

As for `CC1CCc2cc(F)cc3c(=O)c(C(=O)O)cn1c23` (centres undefined), the suppression of toxicity in test [1] came out at 1.43; in the test “PubChem AID 1597”, 0.715.

For `CCC(=O)OCC(=O)C1(OC(=O)CC)C(C)CC2C3CCC4=CC(=O)C=CC4(C)C3(Cl)C(O)CC21C` (centres undefined), the values for the suppression of toxicity (in test [1]; in “PubChem AID 1597”) were 1.43 and 2.15, respectively.

With `CCn1cc(C(=O)O)c(=O)c2cc(F)c(N3CCNCC3)nc21`, the suppression of toxicity in test [1] stood at 0; in the test “PubChem AID 1597”, 4.29.

For `NC(Cc1ccc(Cl)cc1)C(=O)O` (centres undefined), the figures for the suppression of toxicity (in test [1]; in “PubChem AID 1597”) were 0 and 0.715, respectively.

As for `CN1CCC(=C2c3ccccc3Sc3ccccc32)CC1`, the suppression of toxicity in test [1] was 1.43; in “PubChem AID 1597”, 0.715.

As for `CC1(C)O[C@@H]2CC3C4C[C@H](F)C5=CC(=O)CC[C@]5(C)C4[C@@H](O)C[C@]3(C)[C@]2(C(=O)CO)O1` (some centres undefined), the suppression of toxicity in test [1] amounted to 0; in the test “PubChem AID 1597”, 3.58.

As for `CC(N)C(O)c1cccc(O)c1` (centres undefined), the suppression of toxicity (in test [1]; in the test “PubChem AID 1597”) was 1.43 in each case.

For `COC(=O)[C@H]1[C@H]2C[C@@H]3c4[nH]c5cc(OC)ccc5c4CCN3C[C@H]2C[C@@H](OC(=O)c2cc(OC)c(OC)c(OC)c2)[C@@H]1OC`, the suppression of toxicity is 1.43 in test [1] and 3.58 in “PubChem AID 1597”.

With `NC(=O)c1ccc([N+](=O)[O-])cc1Cl`, the suppression of toxicity was determined as 10 in test [1] and 22.9 in “PubChem AID 1597”.

As to `CN[C@H](CC(=O)O)C(=O)O`, the suppression of toxicity in test [1] was 0; in the test “PubChem AID 1597” it was 17.9.

On to `CN/C(=C\[N+](=O)[O-])NCCSCc1ccc(CN(C)C)o1`, for which the suppression of toxicity (in test [1]; in the test “PubChem AID 1597”) was 0 in each case.

For `C1N2CN3CN1CN(C2)C3`, the suppression of toxicity in test [1] amounted to 0; in the test “PubChem AID 1597”, 5.71.

Consider `C[n+]1c2cc(N)ccc2cc2ccc(N)cc21`, for which the suppression of toxicity was 2.86 in test [1] and 10.7 in “PubChem AID 1597”.

`O=C1C[C@@H](c2ccc(O)cc2)Oc2cc(O)cc(O)c21`: the values for the suppression of toxicity (in test [1]; in the test “PubChem AID 1597”) were 0 and 5.71, respectively.

On to `O=c1[nH]c(=O)n(C2C[C@@H](O)[C@@H](CO)O2)cc1F` (some centres undefined), for which the suppression of toxicity in test [1] stood at 2.85; in the test “PubChem AID 1597”, 2.15.

Regarding `CCn1nc(C(=O)O)c(=O)c2cc3c(cc21)OCO3`, the suppression of toxicity amounted to 0 in test [1] and 4.29 in the test “PubChem AID 1597”.

Consider `O=C1C(O)=C(O)C(=O)C(O)=C1O`, for which the results for the suppression of toxicity (in test [1]; in “PubChem AID 1597”) were 4.29 and 3.57, respectively.

For the compound `Cc1cccc(C)c1OCC(C)N` (centres undefined), the suppression of toxicity stood at 0 in test [1] and 0.715 in the test “PubChem AID 1597”.

Regarding `NC[C@@H]1O[C@H](O[C@@H]2[C@@H](CO)OC(O[C@@H]3[C@@H](O)[C@H](N)C[C@H](N)[C@H]3OC3O[C@H](CN)[C@@H](O)[C@H](O)[C@H]3N)[C@@H]2O)[C@H](N)[C@@H](O)[C@@H]1O` (some centres undefined), the suppression of toxicity in test [1] came to 4.29; in the test “PubChem AID 1597” it was 10.

`CCN(CC)CCOc1ccc(/C(=C(\Cl)c2ccccc2)c2ccccc2)cc1`: the suppression of toxicity (in test [1]; in “PubChem AID 1597”) was 0 in each case.

With `CCOc1ccc2c(c1)C(C)=CC(C)(C)N2`, the suppression of toxicity came out at 1.43 in test [1] and 2.85 in “PubChem AID 1597”.

For `CC[C@H]1OC(=O)[C@H](C)[C@@H](O[C@H]2C[C@@](C)(OC)[C@@H](O)[C@H](C)O2)[C@H](C)[C@@H](O[C@@H]2O[C@H](C)C[C@H](N(C)C)[C@H]2O)[C@](C)(O)C[C@@H](C)CN(C)[C@H](C)[C@@H](O)[C@]1(C)O`, the values for the suppression of toxicity (in test [1]; in the test “PubChem AID 1597”) were 7.14 and 10, respectively.

Turning to `CC(=O)N=c1sc(S(N)(=O)=O)nn1C`, the suppression of toxicity in test [1] came out at 1.43; in the test “PubChem AID 1597”, 2.86.

For the compound `CC(=O)O[C@]1(C(C)=O)CCC2C3C[C@H](C)C4=CC(=O)CC[C@]4(C)C3CC[C@@]21C` (some centres undefined), the values for the suppression of toxicity (in test [1]; in the test “PubChem AID 1597”) were 5.71 and 11.4, respectively.

For `C=C[C@@]1(C)CC(=O)[C@@]2(O)[C@](C)(O1)[C@@H](OC(C)=O)[C@@H](O)C1C(C)(C)CC[C@H](O)[C@@]12C` (some centres undefined), the values for the suppression of toxicity (in test [1]; in the test “PubChem AID 1597”) were 11.4 and 8.57, respectively.

For `COc1ccc2c(c1)c(CC(=O)OCC(=O)O)c(C)n2C(=O)c1ccc(Cl)cc1`, the suppression of toxicity turned out to be 2.86 in test [1] and 6.43 in the test “PubChem AID 1597”.

In the case of `NS(=O)(=O)c1cc2c(cc1Cl)NCNS2(=O)=O`, the suppression of toxicity in test [1] came out at 10; in the test “PubChem AID 1597” it was 7.86.

For the compound `COc1ccc2cc([C@H](C)C(=O)O)ccc2c1`, the suppression of toxicity in test [1] is 0; in “PubChem AID 1597”, 10.

As for `CN(C)CCCN1c2ccccc2CCc2ccc(Cl)cc21`, the figures for the suppression of toxicity (in test [1]; in the test “PubChem AID 1597”) were 1.43 and 4.29, respectively.

`Cc1nnc(SCC2=C(C(=O)O)N3C(=O)[C@@H](NC(=O)Cn4cnnn4)[C@H]3SC2)s1`: the suppression of toxicity in test [1] came to 7.14; in the test “PubChem AID 1597”, 6.42.

`CO[C@@]1(NC(=O)CSCC#N)C(=O)N2C(C(=O)O)=C(CSc3nnnn3C)CSC21` (some centres undefined): the suppression of toxicity in test [1] stood at 1.43; in “PubChem AID 1597”, 5.

As to `CC(=O)C1CCC2C3CC=C4CC(OS(=O)(=O)O)CC[C@]4(C)C3CC[C@]12C` (some centres undefined), the results for the suppression of toxicity (in test [1]; in the test “PubChem AID 1597”) were 0 and 0.715, respectively.

For `O=C1O[C@@H](CO)[C@H](O)[C@@H](O)[C@@H]1O`, the suppression of toxicity (in test [1]; in the test “PubChem AID 1597”) was 8.57 throughout.
